Reference: PMC8482512
No constants are given. Whether binding was seen depends on the method and setting. Binding seen in cells or lysates may run through a third protein. A result given as binding can be weak or reduced; the word gives no strength. Blank lines part the entries; values can stand above or below the binder they belong to.

Sequences of proteins named here, by UniProt entry; tags and fusion partners are left off. A change or cut given only in a name is not applied to a line headed by its entry.
UniProt Q04689: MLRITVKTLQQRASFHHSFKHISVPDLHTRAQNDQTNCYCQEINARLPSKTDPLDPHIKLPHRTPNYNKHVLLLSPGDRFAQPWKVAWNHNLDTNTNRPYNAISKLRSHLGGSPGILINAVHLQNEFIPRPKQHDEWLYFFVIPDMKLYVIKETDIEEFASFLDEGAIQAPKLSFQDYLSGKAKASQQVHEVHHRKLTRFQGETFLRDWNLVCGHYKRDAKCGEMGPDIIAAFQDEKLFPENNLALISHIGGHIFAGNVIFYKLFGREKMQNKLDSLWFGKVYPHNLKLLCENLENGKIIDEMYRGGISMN

Assays:
[1] = biological target: Aim32 with the HisPC (CNAP) tag on the C terminus (Aim32-HisPC) (S. cerevisiae) (UniProt Q04689); assay: pull-down; tandem affinity purification (CNAP) of Aim32-HisPC: lysate on Ni2+-agarose, eluted with 300 mM imidazole, then anti-protein C resin; immunoblot
[2] = biological target: Aim32 with a C-terminal FLAG tag (Aim32-FLAG) (S. cerevisiae) (UniProt Q04689); assay: co-IP; mitochondrial lysate of Δaim32 [pAIM32-FLAG], ANTI-FLAG M2 affinity gel (FLAG-resin), immunoblot with the indicated antibodies

- binding [1]: no binding
- binding [2]: binds
B1: Mia40 (protein, UniProt P36046 32-403)
chain: MASSPQFGRNSNQEKTAGFIMGILSMAGALYFIAPNRKPLFASRKVESDKTAEEELSSGGEQSPENEDDNNSKSDENGDDNDSKNDETEAGPQLGGDKIGASKVAEDGELVVLAEEDNKSSEDKDTDESKVSTKDDEQSNEDNATANNQKDENISSENSEENTSDKTLDNNAGSSEKKDPEHSDDEKSQQGQSDDKTTTEDNNGEEESSKKTVSDSENSAKQSESSDEEKEELRKQEEKQMGPTEEEVQHEGAYNPDTGEINWDCPCLGGMAHGPCGEEFKSAFSCFVYSEAEPKGIDCVEKFQHMQDCFRKYPEHYAEQLKETSDDEEPQDKVKVNTIESAPNVSSAKENAAKKAEQSDVKKEPLNEESKP

- binding [1]: no binding
B2: Erv1 (enzyme, UniProt P27882 1-189)
chain: MKAIDKMTDNPPQEGLSGRKIIYDEDGKPCRSCNTLLDFQYVTGKISNGLKNLSSNGKLAGTGALTGEASELMPGSRTYRKVDPPDVEQLGRSSWTLLHSVAASYPAQPTDQQKGEMKQFLNIFSHIYPCNWCAKDFEKYIRENAPQVESREELGRWMCEAHNKVNKKLRKPKFDCNFWEKRWKDGWDE

- binding [1]: binds
B3: Osm1 (enzyme, UniProt P21375 33-501)
chain: MKQPVVVIGSGLAGLTTSNRLISKYRIPVVLLDKAASIGGNSIKASSGINGAHTDTQQNLKVMDTPELFLKDTLHSAKGRGVPSLMDKLTKESKSAIRWLQTEFDLKLDLLAQLGGHSVPRTHRSSGKLPPGFEIVQALSKKLKDISSKDSNLVQIMLNSEVVDIELDNQGHVTGVVYMDENGNRKIMKSHHVVFCSGGFGYSKEMLKEYSPNLIHLPTTNGKQTTGDGQKILSKLGAELIDMDQVQVHPTGFIDPNDRENNWKFLAAEALRGLGGILLHPTTGRRFTNELSTRDTVTMEIQSKCPKNDNRALLVMSDKVYENYTNNINFYMSKNLIKKVSINDLIRQYDLQTTASELVTELKSYSDVNTKDTFDRPLIINAFDKDISTESTVYVGEVTPVVHFTMGGVKINEKSQVIKKNSESVLSNGIFAAGEVSGGVHGANRLGGSSLLECVVFGKTAADNIAKLY
